PubChem BioAssay (NCATS)
Where “and” joins values, the source holds several entries; their conditions need not be identical. Equal values may be shown once. Inconclusive results, whose numbers are uncertain, are shown with a selection of clear calls. For some of these results: Potencies of inconclusive entries are doubtful fits and often do not repeat. Calls of active or inactive are those of the source. Unless noted, calls come from the whole dose curve; as a rule, active = well fitted curve in the direction sought with a large enough effect; inconclusive = small, poorly fitted or top-dose-only effect, or another doubt; inactive = no such curve, though single readings can be large; an effect the other way counts as inactive or inconclusive.

The chains behind the UniProt entries cited, without tags or fusion partners.
UniProt P11712, whole entry, looked up: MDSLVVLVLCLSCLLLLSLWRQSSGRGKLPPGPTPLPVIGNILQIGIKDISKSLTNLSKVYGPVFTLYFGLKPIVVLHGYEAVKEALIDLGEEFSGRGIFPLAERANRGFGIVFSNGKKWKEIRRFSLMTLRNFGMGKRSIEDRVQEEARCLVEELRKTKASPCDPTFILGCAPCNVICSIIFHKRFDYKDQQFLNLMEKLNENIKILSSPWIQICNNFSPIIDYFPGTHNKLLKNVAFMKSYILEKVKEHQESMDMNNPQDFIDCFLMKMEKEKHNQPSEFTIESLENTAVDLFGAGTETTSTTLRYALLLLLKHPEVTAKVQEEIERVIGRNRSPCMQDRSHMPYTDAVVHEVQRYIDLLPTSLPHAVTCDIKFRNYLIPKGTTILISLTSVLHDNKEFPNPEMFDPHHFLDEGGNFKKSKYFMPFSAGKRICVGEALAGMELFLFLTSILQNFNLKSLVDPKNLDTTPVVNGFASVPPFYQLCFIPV
UniProt P33261, whole entry, looked up: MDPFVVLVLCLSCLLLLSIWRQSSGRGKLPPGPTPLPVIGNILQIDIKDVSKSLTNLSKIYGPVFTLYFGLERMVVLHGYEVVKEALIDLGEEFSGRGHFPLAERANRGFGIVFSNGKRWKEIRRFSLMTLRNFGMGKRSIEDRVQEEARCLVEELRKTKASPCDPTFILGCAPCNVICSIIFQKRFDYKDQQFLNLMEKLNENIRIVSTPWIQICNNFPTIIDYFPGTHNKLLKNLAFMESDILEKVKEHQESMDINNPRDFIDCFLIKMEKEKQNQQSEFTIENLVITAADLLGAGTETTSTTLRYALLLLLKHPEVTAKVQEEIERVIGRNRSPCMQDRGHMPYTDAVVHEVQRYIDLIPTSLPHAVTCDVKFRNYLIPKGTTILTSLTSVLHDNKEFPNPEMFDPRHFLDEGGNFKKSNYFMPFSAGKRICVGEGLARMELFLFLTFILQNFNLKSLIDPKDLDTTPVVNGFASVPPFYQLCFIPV
UniProt P05177, whole entry, looked up: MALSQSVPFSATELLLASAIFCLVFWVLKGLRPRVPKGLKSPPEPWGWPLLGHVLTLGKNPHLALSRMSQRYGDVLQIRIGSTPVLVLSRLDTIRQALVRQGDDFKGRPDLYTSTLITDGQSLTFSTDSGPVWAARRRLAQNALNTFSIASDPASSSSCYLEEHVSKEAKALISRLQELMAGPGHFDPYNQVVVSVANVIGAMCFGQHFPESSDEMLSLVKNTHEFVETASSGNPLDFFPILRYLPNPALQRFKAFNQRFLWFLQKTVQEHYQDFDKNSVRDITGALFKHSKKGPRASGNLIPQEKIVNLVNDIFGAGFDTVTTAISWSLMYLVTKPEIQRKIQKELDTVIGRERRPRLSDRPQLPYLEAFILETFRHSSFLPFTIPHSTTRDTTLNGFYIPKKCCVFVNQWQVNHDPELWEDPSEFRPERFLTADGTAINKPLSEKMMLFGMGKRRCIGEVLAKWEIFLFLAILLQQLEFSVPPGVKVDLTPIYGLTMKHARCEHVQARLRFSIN

Tests used:
[1] = Quantitative High-Throughput drug screen in 47 multiple myeloma cell lines against the NCATS MIPE library collection: UTMC2_PLB cell viability assay (AID 1919868); settings: CellTiter-Glo ATP luminescence, 48 h; viability (% of DMSO control): at 45.8 µM (top of the series); note: nearly all actives have a fitted effect of over 55% in size; note: potency is the fitted concentration of half-maximal effect
Method in brief: (§1)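 Myeloma cells (500/well) treated with MIPE 4.0 compounds for 48 h at 37 °C, 5% CO2. Viability read as ATP via CellTiter-Glo luminescence after 5 min at RT; DMSO-only wells = 100%, media-only = 0% viability.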

[2] = Quantitative High-Throughput drug screen in 47 multiple myeloma cell lines against the NCATS MIPE library collection: PCM6_Riken cell viability assay (AID 1919870); settings: CellTiter-Glo ATP, 48 h; viability (% of control): at 45.8 µM (top of the series); note: nearly all actives have a fitted effect of over 30% in size; note: potency is the fitted concentration of half-maximal effect
Method in brief: as §1

[3] = Quantitative High-Throughput drug screen in 47 multiple myeloma cell lines against the NCATS MIPE library collection: RPMI8226_ATCC cell viability assay (AID 1919871); note: potency is the fitted concentration of half-maximal effect; nearly all actives have a fitted effect of over 30% in size
Method in brief: as §1

[4] = Quantitative High-Throughput drug screen in 47 multiple myeloma cell lines against the NCATS MIPE library collection: OPM2_DSMZ cell viability assay (AID 1919872); note: nearly all actives have a fitted effect of over 30% in size; note: potency is the fitted concentration of half-maximal effect
Method in brief: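 Primary qHTS used for cherry-picking: cells at 500/well, library compounds for 48 h (37C, 5% CO2), luminescent ATP assay.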

[5] = Quantitative High-Throughput drug screen in 47 multiple myeloma cell lines against the NCATS MIPE library collection: KMS28BM_JCRB cell viability assay (AID 1919874); note: nearly all actives have a fitted effect of over 35% in size; note: potency is the fitted concentration of half-maximal effect
Method in brief: as §1

[6] = qHTS for identification of novel therapeutic agents for treatment of microphthalmiaassociated transcription factor (MiT) renal cell carcinoma (RCC) (AID 1963991; calls by dose curve; note: potency is the fitted concentration of half-maximal effect); settings: TFE3-RCC UOK109 viability, CellTiter-Glo, 48 h; active = Z-AUC below -0.8 in all three lines
Method in brief: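 Three TFE3-fusion RCC lines (UOK109, UOK124, UOK145), 500 cells/well in complete medium, were treated with MIPE 4.0 compounds for 48 hours at 37 C. Viability was by CellTiter-Glo luminescence, normalized to DMSO (100%) and empty wells (0%); curves fitted over 11 concentrations.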

HEK293 = test: Cytotoxic Profiling of Annotated Libraries Using Quantitative High-Throughput Screening (AID 1296008); settings: Five cell lines viability, CellTiter-Glo ATP luminescence, 48-72 h; max response: active compounds read low; note: nearly all actives have a fitted effect of over 60% in size; note: potency is the fitted concentration of half-maximal effect; for max response: % is set by controls: 0 for no effect and ±100 for the full control effect
Method in brief: (§2)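 Compounds were pin-transferred onto cells and incubated 48 or 72 hr at 37 degree Celsius, 95% humidity. CellTiter-Glo was added, plates sat 10 min at room temperature, then ATP-coupled luminescence was imaged as the viability read-out.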

HaCat = test: as above; settings: Five cell lines viability, CellTiter-Glo ATP luminescence, 48-72 h; max response: active compounds read low
Method in brief: as §2

[7] = Quantitative High-Throughput drug screen in 47 multiple myeloma cell lines against the NCATS MIPE library collection: KMS11_JCRBsus cell viability assay (AID 1919873); note: potency is the fitted concentration of half-maximal effect; nearly all actives have a fitted effect of over 50% in size
Method in brief: as §1

KB-3-1 = test: Cytotoxic Profiling of Annotated Libraries Using Quantitative High-Throughput Screening (AID 1296008); settings: Five cell lines viability, CellTiter-Glo ATP luminescence, 48-72 h; max response: active compounds read low; note: nearly all actives have a fitted effect of over 60% in size; note: potency is the fitted concentration of half-maximal effect; for max response: % is set by controls: 0 for no effect and ±100 for the full control effect
Method in brief: as §2

[8] = Quantitative High-Throughput drug screen in 47 multiple myeloma cell lines against the NCATS MIPE library collection: PE2_PLB cell viability assay (AID 1919869); note: nearly all actives have a fitted effect of over 35% in size; note: potency is the fitted concentration of half-maximal effect
Method in brief: as §1

NIH3T3 = test: Cytotoxic Profiling of Annotated Libraries Using Quantitative High-Throughput Screening (AID 1296008); settings: Five cell lines viability, CellTiter-Glo ATP luminescence, 48-72 h; max response: active compounds read low; note: nearly all actives have a fitted effect of over 60% in size; note: potency is the fitted concentration of half-maximal effect; for max response: % is set by controls: 0 for no effect and ±100 for the full control effect
Method in brief: as §2

MCC-13 = test: qHTS assay to identify novel small-molecules to repurpose for Merkel cell carcinoma treatment (AID 1296009); settings: MCC and control cell lines, CellTiter-Glo viability, 72 h; series mostly up to 46 µM; note: potency is the fitted concentration of half-maximal effect; nearly all actives have a fitted effect of over 60% in size
Method in brief: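 Cells exposed to NPC (8-point) and MIPE (11-point) compound dilutions for 72 hr at 37 degree celsius; viability read by CellTiter-Glo luminescence, normalized to no-cell and DMSO in-plate controls.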

[9] = target: Cytochrome P450 2C9 (Homo sapiens) (UniProt P11712); test: qHTS for inhibitors of CYP2C9 against the NCATS DSHEA and TCM libraries (AID 1919973); settings: recombinant CYP2C9 enzyme activity, luminescence; at 34.1 µM (top of the series);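 note: luminogenic pro-luciferin CYP2C9 substrate turned into luciferin with NADPH regeneration; % is set by controls: 0 for no effect and ±100 for the full control effect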
Method in brief: (§3)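 Light output from converted D-luciferin reports remaining CYP activity. Compounds preincubate with enzyme and substrate for 15 min; NADPH regeneration (1x final) runs the reaction for 30-45 min.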

[10] = target: Cytochrome P450 2C19 (Homo sapiens) (UniProt P33261); test: qHTS for inhibitors of CYP2C19 against the NCATS DSHEA and TCM libraries (AID 1919974); settings: CYP2C19 enzyme inhibition, luminescence qHTS;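 note: luminescence from luciferin released by CYP2C19 oxidation of a pro-luciferin substrate; potency is the fitted concentration of half-maximal effect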
Method in brief: as §3

[11] = target: Cytochrome P450 1A2 (Homo sapiens) (UniProt P05177); test: qHTS for inhibitors of CYPIA2 against the NCATS DSHEA and TCM libraries (AID 1919976); settings: recombinant CYP1A2 enzyme activity, luminescence; note: potency is the fitted concentration of half-maximal effect
Method in brief: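 In this quantitative HTS, inhibition of recombinant human CYP1A2 was measured as loss of luciferin-derived luminescence. Turnover ran 30-45 min at RT after NADPH regeneration solution was added.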

CCCC1OC2C[C@@H]3[C@H]4CCC5=CC(=O)C=C[C@]5(C)[C@H]4C(O)C[C@]3(C)[C@]2(C(=O)CO)O1 (some centres not stated)
inconclusive: Potency [1] 1.18 µM [rising, full curve, poor fit] | Potency [2] 16.6 µM [cytotoxic, partial curve, poor fit] | Potency [3] 0.0093 µM [cytotoxic, full curve] | Potency [4] 3.72 µM [cytotoxic, partial curve, poor fit] | Potency [5] 33.2 µM [cytotoxic, partial curve] | Potency [6] 26.4 µM [falling, partial curve, poor fit] | Potency (HEK293) 33.2 µM [inhibitor, single point] | Potency (HaCat) 14.8 µM [inhibitor, partial curve, poor fit]

c1ccc2c(Oc3nc(Nc4ccc(N5CCOCC5)cc4)c4ncn(C5CCCCC5)c4n3)cccc2c1
inactive: Potency [2] | max response (KB-3-1) 8.53%
inconclusive: Potency [1] 13.2 µM [cytotoxic, partial curve, poor fit] | Potency [7] 11.8 µM [cytotoxic, single point] | Potency [5] 11.8 µM [cytotoxic, single point] | Potency [6] 18.7 µM [partial curve, poor fit] | Potency (HEK293) 37.2 µM [inhibitor, single point] and 20.6 µM [inhibitor, single point] | Potency (KB-3-1) 25.9 µM [inhibitor, single point]

CC[C@H]1OC(=O)[C@H](C)C(=O)[C@H](C)[C@@H](O[C@H]2O[C@H](C)C[C@H](N(C)C)[C@@H]2O)[C@](C)(OC)C[C@@H](C)C(=O)[C@H](C)[C@H]2N(CCCCn3cnc(-c4cccnc4)c3)C(=O)O[C@]12C
inconclusive: Potency [1] 11.8 µM [rising, single point] | Potency [2] 18.7 µM [cytotoxic, partial curve, poor fit] | Potency (HEK293) 20.9 µM [inhibitor, partial curve]
active: Potency [7] 16.6 µM
inactive: Potency [5] | max response (KB-3-1) 2.84%

O=C(NC1CCOCC1)c1ccc(-c2cc(-c3cn[nH]c3-c3ccccn3)ccn2)cc1
inconclusive: Potency [3] 2.64 µM [cytotoxic, full curve, poor fit] | Potency (HEK293) 11.8 µM [inhibitor, partial curve, poor fit] | Potency (NIH3T3) 2.35 µM [inhibitor, full curve] and 20.6 µM [inhibitor, partial curve]
inactive: Potency [1] | Potency [8] | Potency [2] | max response (KB-3-1) -6.4% and 1.2%

CN1N=C(N)c2cn([C@@H]3O[C@H](COP(=O)(O)O)[C@@H](O)[C@@H]3O)c3ncnc1c23
inconclusive: Potency [4] 18.7 µM [cytotoxic, partial curve, poor fit] | Potency [7] 2.35 µM [cytotoxic, partial curve] | Potency [6] 6.62 µM [falling, partial curve] | Potency (HEK293) 2.35 µM [inhibitor, full curve, poor fit] | Potency (HaCat) 0.118 µM [inhibitor, full curve] | Potency (MCC-13) 4.69 µM [inhibitor, partial curve]

CO[C@H]1C[C@@H]2CC[C@@H](C)[C@@](O)(O2)C(=O)C(=O)N2CCCC[C@@H]2C(=O)O[C@H]([C@H](C)C[C@@H]2CC[C@H](OP(C)(C)=O)[C@H](OC)C2)CC(=O)[C@H](C)C=C(C)[C@@H](O)[C@@H](OC)C(=O)[C@H](C)C[C@H](C)C=CC=CC=C1C
inconclusive: Potency [8] 29.6 µM [cytotoxic, single point] | Potency [2] 29.6 µM [cytotoxic, single point] | Potency (HEK293) 0.0833 µM [inhibitor, full curve, poor fit] | Potency (KB-3-1) 18.7 µM [inhibitor, partial curve, poor fit]
inactive: Potency [1] | Potency [5]

COc1cc(O)c2c(c1)C(=O)c1cc(C)cc(O)c1C2=O
inconclusive: Potency [1] 1.62 µM [rising, full curve, poor fit] | Potency [7] 5.75 µM [cytotoxic, single point] | Potency [5] 5.75 µM [cytotoxic, single point] | Potency [10] 3.55 µM [inhibitor, full curve] | Potency [11] 6.31 µM [inhibitor, full curve] | Potency (HEK293) 18.2 µM [inhibitor, single point]
inactive: Potency [8] | Potency [2] | Potency [4] | activity change, negative = inhibition [9] -26.9% | max response (HaCat) -5.67%
